Measurements taken from the supplement of paper PMC10849652.
The other results are listed elsewhere or left out.

By UniProt entry, the sequences of proteins in these tests, tags left out. Where a name states a change or a piece, a line headed by the entry shows the natural chain unless it says otherwise.
UniProt Q9BRT3: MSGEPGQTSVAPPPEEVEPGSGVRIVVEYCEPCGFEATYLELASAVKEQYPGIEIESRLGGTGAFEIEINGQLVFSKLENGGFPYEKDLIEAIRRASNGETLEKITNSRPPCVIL
UniProt Q9NZB8: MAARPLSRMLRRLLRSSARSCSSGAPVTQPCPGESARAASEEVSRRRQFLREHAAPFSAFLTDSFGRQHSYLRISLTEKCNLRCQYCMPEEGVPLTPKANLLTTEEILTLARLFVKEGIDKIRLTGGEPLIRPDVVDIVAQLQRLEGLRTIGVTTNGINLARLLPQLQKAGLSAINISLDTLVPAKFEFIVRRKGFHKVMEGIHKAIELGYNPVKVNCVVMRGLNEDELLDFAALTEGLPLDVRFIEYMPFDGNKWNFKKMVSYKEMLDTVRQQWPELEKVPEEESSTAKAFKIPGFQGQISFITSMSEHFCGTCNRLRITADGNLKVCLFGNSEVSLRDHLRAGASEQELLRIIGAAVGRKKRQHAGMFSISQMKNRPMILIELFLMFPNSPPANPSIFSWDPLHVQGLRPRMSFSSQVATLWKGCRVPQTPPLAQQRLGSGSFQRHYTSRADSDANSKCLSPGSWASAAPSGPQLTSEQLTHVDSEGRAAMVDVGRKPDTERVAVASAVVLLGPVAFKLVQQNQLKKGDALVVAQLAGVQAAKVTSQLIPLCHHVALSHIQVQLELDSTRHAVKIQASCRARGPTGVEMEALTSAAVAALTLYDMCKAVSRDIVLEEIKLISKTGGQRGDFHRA
UniProt Q15014, whole entry, looked up: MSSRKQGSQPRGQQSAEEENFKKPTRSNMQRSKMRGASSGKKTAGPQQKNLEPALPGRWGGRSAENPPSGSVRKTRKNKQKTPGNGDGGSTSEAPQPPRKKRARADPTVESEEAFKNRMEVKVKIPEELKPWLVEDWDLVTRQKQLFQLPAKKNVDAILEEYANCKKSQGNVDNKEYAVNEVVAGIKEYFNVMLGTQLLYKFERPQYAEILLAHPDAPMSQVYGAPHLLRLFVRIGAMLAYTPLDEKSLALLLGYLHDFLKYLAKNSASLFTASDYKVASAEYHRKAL
UniProt Q99583: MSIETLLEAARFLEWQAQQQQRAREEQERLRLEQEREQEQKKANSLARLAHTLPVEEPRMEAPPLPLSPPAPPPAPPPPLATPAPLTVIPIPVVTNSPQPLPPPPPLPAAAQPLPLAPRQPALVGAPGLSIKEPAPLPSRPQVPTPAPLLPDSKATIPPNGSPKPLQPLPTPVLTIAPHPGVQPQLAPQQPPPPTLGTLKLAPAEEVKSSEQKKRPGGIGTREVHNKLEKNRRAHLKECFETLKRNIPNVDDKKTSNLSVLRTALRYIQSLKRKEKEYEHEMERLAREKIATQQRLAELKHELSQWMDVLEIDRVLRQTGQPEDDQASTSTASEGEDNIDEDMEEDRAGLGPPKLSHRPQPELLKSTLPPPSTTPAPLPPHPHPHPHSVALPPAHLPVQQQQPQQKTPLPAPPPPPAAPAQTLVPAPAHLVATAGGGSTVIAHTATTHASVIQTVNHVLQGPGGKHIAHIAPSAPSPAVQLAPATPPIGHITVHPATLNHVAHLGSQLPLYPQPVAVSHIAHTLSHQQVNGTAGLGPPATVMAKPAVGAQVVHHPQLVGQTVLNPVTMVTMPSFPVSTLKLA
UniProt Q96T76: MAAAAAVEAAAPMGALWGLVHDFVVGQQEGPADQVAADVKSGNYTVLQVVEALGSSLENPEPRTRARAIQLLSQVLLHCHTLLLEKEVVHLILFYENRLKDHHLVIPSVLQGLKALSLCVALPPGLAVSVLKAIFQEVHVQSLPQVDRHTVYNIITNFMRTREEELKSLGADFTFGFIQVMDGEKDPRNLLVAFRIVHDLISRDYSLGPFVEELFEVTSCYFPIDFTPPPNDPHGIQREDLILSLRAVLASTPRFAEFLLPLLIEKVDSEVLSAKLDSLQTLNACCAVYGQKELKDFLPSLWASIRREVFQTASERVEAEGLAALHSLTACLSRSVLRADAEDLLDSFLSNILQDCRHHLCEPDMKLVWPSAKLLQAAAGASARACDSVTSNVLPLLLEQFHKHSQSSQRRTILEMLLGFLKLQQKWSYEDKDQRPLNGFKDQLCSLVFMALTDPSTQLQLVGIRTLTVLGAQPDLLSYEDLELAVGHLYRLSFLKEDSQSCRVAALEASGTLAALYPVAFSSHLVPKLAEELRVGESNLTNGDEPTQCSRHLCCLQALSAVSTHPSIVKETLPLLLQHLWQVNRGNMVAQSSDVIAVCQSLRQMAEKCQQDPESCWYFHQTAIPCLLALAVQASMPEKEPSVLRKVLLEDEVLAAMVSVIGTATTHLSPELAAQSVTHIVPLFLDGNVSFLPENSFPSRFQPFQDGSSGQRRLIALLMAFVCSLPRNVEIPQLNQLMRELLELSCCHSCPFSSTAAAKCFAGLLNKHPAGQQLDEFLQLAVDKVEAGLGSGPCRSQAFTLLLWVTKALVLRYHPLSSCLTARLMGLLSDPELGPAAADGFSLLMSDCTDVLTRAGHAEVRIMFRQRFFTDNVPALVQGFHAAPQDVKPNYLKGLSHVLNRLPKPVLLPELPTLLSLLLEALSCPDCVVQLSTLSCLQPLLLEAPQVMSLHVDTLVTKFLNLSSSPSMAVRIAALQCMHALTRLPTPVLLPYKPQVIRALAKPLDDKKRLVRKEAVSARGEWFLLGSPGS
UniProt Q8N3F8: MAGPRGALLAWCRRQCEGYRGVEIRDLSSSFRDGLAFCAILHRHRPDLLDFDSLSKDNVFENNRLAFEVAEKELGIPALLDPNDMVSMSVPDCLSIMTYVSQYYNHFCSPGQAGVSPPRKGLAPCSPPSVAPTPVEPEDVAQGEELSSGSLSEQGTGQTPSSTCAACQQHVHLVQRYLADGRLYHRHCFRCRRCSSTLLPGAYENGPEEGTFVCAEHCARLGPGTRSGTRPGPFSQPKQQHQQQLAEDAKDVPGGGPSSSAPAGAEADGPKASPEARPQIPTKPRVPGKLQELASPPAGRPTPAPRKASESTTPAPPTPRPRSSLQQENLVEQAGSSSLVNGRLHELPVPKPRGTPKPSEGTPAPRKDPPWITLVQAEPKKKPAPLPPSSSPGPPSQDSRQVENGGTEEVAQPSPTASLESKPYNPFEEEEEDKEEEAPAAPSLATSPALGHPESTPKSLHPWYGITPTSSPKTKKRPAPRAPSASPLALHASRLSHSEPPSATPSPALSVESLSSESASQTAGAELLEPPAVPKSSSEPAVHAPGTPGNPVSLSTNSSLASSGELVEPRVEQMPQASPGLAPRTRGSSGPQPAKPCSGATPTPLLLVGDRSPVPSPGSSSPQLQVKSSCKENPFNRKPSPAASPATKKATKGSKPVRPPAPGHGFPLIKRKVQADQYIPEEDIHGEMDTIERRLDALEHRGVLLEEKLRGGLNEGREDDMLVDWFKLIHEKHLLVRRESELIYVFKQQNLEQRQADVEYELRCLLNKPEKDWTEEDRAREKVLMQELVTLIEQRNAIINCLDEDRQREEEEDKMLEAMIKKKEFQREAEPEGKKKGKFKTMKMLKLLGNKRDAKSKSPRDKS
UniProt Q6ZRQ5: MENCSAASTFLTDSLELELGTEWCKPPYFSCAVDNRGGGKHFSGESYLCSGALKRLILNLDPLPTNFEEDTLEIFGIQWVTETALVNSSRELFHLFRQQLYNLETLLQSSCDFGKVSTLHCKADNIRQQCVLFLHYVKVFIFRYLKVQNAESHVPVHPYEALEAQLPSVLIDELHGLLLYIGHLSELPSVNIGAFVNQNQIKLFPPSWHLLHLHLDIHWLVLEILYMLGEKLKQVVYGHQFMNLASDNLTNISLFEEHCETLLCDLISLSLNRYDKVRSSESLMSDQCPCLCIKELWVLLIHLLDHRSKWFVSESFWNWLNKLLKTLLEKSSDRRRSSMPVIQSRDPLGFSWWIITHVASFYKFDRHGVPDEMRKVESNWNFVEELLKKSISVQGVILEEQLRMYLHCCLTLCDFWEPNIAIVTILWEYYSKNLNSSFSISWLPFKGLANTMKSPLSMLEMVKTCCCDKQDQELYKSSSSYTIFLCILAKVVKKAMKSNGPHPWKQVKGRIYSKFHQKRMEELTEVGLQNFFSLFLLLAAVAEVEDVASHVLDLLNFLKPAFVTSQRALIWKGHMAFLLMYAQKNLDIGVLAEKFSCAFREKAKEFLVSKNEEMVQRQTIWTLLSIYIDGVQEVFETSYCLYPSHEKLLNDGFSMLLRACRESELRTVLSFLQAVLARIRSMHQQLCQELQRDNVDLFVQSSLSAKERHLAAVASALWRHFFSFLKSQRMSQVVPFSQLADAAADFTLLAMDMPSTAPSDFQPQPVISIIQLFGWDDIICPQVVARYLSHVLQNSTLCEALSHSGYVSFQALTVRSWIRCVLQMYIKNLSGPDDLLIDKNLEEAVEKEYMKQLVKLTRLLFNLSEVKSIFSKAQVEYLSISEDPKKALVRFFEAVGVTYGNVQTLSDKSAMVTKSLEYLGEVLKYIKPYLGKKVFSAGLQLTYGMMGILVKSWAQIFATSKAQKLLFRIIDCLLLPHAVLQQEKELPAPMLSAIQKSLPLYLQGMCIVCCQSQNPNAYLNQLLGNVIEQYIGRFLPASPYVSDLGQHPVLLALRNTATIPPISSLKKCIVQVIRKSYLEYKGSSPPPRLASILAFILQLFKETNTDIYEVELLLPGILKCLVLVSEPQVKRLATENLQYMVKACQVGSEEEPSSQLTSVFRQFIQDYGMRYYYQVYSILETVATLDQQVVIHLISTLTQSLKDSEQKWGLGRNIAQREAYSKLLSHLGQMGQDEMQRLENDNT
UniProt Q99797: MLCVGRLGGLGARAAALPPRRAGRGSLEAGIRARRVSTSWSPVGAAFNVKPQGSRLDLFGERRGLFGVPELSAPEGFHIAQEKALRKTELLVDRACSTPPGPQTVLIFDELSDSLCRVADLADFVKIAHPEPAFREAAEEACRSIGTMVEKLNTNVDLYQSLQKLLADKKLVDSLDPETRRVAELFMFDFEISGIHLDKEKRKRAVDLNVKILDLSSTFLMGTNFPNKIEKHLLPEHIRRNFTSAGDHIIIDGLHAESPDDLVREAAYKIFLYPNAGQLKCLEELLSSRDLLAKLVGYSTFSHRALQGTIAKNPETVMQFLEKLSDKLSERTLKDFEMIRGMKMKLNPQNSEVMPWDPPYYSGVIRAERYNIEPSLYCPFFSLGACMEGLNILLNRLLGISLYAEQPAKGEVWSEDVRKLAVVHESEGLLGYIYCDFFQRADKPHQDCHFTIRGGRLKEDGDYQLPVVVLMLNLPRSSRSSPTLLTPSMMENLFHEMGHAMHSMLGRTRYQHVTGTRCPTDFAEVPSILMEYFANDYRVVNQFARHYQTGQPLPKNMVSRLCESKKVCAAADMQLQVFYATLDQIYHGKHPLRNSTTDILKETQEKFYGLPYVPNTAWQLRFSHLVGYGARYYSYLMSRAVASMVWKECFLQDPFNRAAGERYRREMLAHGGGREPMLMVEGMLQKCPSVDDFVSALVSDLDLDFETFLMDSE
UniProt O95396: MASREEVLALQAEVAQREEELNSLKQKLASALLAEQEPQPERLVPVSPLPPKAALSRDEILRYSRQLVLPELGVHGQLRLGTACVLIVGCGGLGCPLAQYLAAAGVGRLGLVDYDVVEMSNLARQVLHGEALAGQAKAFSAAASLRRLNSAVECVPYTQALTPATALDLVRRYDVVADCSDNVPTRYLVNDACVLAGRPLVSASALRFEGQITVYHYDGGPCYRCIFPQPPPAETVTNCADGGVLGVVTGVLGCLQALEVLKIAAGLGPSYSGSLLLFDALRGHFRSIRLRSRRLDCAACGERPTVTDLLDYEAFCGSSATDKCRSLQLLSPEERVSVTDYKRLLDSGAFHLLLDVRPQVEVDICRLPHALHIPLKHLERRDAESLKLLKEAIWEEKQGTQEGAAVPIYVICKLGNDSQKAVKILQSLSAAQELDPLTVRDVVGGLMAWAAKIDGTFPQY
UniProt Q9Y4U1: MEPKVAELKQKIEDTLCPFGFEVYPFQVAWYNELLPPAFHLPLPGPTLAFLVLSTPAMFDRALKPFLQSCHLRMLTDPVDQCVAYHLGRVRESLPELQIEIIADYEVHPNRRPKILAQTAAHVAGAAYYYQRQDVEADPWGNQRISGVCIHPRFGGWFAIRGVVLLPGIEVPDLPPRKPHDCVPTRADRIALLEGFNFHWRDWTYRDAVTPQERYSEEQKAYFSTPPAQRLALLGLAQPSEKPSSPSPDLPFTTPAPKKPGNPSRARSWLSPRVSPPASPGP
UniProt Q13015: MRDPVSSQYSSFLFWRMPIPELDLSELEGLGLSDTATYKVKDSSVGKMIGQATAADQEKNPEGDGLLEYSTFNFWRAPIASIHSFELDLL
UniProt Q9BU76: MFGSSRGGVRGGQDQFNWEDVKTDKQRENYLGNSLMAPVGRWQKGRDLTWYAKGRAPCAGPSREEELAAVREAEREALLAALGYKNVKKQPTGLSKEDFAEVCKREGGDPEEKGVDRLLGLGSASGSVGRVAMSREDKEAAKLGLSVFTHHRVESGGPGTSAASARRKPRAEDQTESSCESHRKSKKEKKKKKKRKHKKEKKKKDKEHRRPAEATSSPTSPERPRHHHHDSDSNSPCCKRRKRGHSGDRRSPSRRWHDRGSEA

What was measured:
Assay in all cases: log2 fold change, soluble protein after heating vs DMSO (PISA); higher = thermal stabilisation; K562 lysate, 10 uM; active = over 0.2 and 3.5 SD of the protein, either way, in both replicates (recomputed)
[1] = compound: NCC(=O)Nc1ccc(-n2nc(C(F)(F)F)cc2-c2ccc3c(ccc4ccccc43)c2)cc1
Procedure, shortened: (§1)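 K562 pellets were dounce-homogenised in PBS pH 7.4 with 1 mM MgCl2, and the crude extract at 1 mg/mL protein was treated with 10 μM compound for 30 min. Aliquots were heated for 3 min across 48°C-58°C, pooled, and brought to 0.5% NP-40 at 4°C; soluble protein was the supernatant after 21,000xg for 90 min. Soluble protein was quantified by TMTpro 16plex LC-MS/MS with channel sums equalised, and reported as log2 fold change in thermal stability against DMSO controls, with values from duplicates.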

vorinostat = compound: O=C(CCCCCCC(=O)Nc1ccccc1)NO [vorinostat]
Procedure, shortened: as §1

silmitasertib = compound: O=C(O)c1ccc2c(c1)nc(Nc1cccc(Cl)c1)c1ccncc12 [silmitasertib]
Procedure, shortened: as §1

[2] = compound: O=C1NC(=O)C(c2cnc3ccccn23)=C1c1cn2c3c(cc(F)cc13)CN(C(=O)N1CCCCC1)CC2
Procedure, shortened: as §1

entospletinib = compound: c1cn2cc(-c3ccc4cn[nH]c4c3)nc(Nc3ccc(N4CCOCC4)cc3)c2n1 [entospletinib]
Procedure, shortened: as §1

Row | Target | log2 fold change [1] | log2 fold change (vorinostat) | log2 fold change (silmitasertib) | log2 fold change [2] | log2 fold change (entospletinib)
1 | MGA (UniProt Q8IWI9) | inactive: 0 | inactive: 0.068 | inactive: -0.008 | inactive: -0.061 | inactive: -0.08
2 | MIER1 isoform 12 (UniProt Q8N108) | inactive: 0.017 | inactive: 0.049 | inactive: -0.028 | inactive: -0.005 | inactive: 0.002
3 | MIEN1 (UniProt Q9BRT3) | inactive: -0.148 | inactive: 0.124 | inactive: 0.009 | inactive: 0.05 | inactive: -0.028
4 | MOCS1 isoform 8 (UniProt Q9NZB8) | inactive: -0.1 | inactive: 0.06 | inactive: -0.018 | inactive: -0.111 | inactive: -0.051
5 | MINDY1 isoform 3 (UniProt Q8N5J2) | inactive: -0.097 | inactive: -0.186 | inactive: 0.144 | inactive: 0.166 | inactive: -0.052
6 | MORF4L2 (UniProt Q15014) | inactive: 0.019 | inactive: 0.005 | inactive: 0.025 | inactive: 0.054 | inactive: 0.018
7 | MNT (UniProt Q99583) | inactive: 0.053 | inactive: -0.039 | inactive: -0.105 | inactive: 0.066 | inactive: -0.015
8 | MRPL2 (UniProt Q5T653) | inactive: 0.16 | inactive: 0.143 | inactive: 0.005 | inactive: -0.022 | –
9 | MPRIP isoform 2 (UniProt Q6WCQ1) | inactive: 0.033 | inactive: -0.041 | inactive: 0.01 | inactive: 0.023 | inactive: -0.089
10 | MMS19 isoform 8 (UniProt Q96T76) | inactive: 0.057 | active: -0.372 | inactive: 0.054 | inactive: 0.029 | inactive: 0.024
11 | MICALL1 (UniProt Q8N3F8) | inactive: 0.011 | inactive: -0.119 | inactive: -0.017 | inactive: -0.003 | inactive: -0.019
12 | MLXIP (UniProt Q9HAP2) | inactive: 0.037 | active: -0.314 | inactive: 0.026 | inactive: 0.079 | inactive: 0.03
13 | MGST3 (UniProt O14880) | inactive: -0.025 | inactive: 0.128 | inactive: 0 | inactive: 0.033 | inactive: 0.041
14 | MMS22L (UniProt Q6ZRQ5) | inactive: 0.022 | active: -0.508 | inactive: 0.016 | inactive: 0.138 | inactive: 0.069
15 | MPHOSPH9 (UniProt Q99550) | inactive: -0.185 | inactive: -0.236 | inactive: -0.145 | inactive: -0.043 | inactive: -0.045
16 | MRPL16 (UniProt Q9NX20) | inactive: 0.093 | inactive: -0.216 | inactive: 0.125 | inactive: -0.037 | inactive: 0.087
17 | MRPL15 (UniProt Q9P015) | inactive: 0.068 | inactive: 0.137 | inactive: -0.071 | inactive: -0.02 | inactive: -0.061
18 | MIPEP (UniProt Q99797) | inactive: 0.005 | inactive: -0.043 | inactive: 0.007 | inactive: -0.021 | inactive: -0.028
19 | MIEF1 (UniProt L0R8F8) | inactive: -0.016 | inactive: -0.018 | inactive: 0.077 | inactive: 0.029 | inactive: 0.004
20 | MIF (UniProt P14174) | inactive: 0.048 | inactive: -0.055 | inactive: 0.065 | inactive: -0.009 | inactive: 0.064
21 | MOCS3 (UniProt O95396) | inactive: 0.062 | active: -0.458 | inactive: -0.012 | inactive: 0.053 | inactive: 0.035
22 | MMACHC (UniProt Q9Y4U1) | inactive: 0.012 | – | – | – | –
23 | MLX (UniProt Q9UH92) | inactive: 0.057 | inactive: -0.273 | inactive: -0.035 | inactive: 0.057 | inactive: -0.054
24 | MLLT11 (UniProt Q13015) | inactive: 0.08 | inactive: 0.104 | inactive: -0.203 | inactive: -0.016 | inactive: 0.034
25 | MMTAG2 (UniProt Q9BU76) | inactive: 0.051 | inactive: -0.185 | inactive: 0.007 | inactive: 0.048 | inactive: 0

Looked up above.
MOCS3 (UniProt O95396) – log2 fold change [2]: inactive: 0.053
MMTAG2 (UniProt Q9BU76) – log2 fold change (silmitasertib): inactive: 0.007
